Data taken from patent US20050233942A1, “Oxygenated dibenzo-alpha-pyrone chromoproteins” (priority 2004, published 2005).
At least one structure is not confirmed: it was looked up by name or label, or the drawing left a doubt.

Test system: adrenal gland ascorbic acid and corticosterone concentrations and plasma corticosterone level
Test: CS induced alteration of adrenal gland ascorbic acid and corticosterone and plasma corticosterone (adrenocorticoid activity)
Assay type: in vivo, CF strain albino rats
Conditions: in words, dose related
Method: Animals The investigation was carried out on CF strain albino rats, of either sex (140-180 g), housed in colony cages at an ambient temperature of 25±2° C., with a 12 h. light/12 h. dark cycle. Experiments were conducted between 0900 and 1400 hrs. • EPA, Eicosapentaenoic acid • DHA, Docosahexaenoic acid • DBPs, 1:1 mixture of 3-hydroxy- and 3,8-dihydroxydibenzo-alpha-pyrone • DCPs, DBP-chromoproteins
The procedure of Armario et al (1993) was followed. Briefly, rats were randomly assigned to control or stress groups. Those assigned to the stress groups were subjected to 1 h foot shock, through a grid floor, every day for 14 days. The duration of each shock (2 mA) and the intervals between the shocks were randomly programmed between 3-5 sec. and 10-110 sec., respectively, to make the stress unpredictable. The shock chamber had high walls which made escape from shock impossible.
EPA (Aldrich, Milw.), DHA (Sigma), DBPs and DCPs were separately suspended/dissolved in 0.3% carboxymethylcellulose(CMC) in distilled water and administered orally (p.o.), for 14 days, starting on day 1, 60 min prior to electroshock. […]
Adrenal gland ascorbic acid (Zenker and Bernstein, 1958) and corticosterone concentrations (Selye, 1936), and plasma corticosterone levels (Selye, 1936) were determined to substantiate the validity and intensity of the stress procedure adopted.

SMILES	Effect on stress-induced adrenal ascorbic acid/corticosterone depletion and plasma corticosterone increase
CC/C=C\C/C=C\C/C=C\C/C=C\C/C=C\C/C=C\CCC(=O)O [DHA, Docosahexaenoic acid]	reversed
CC/C=C\C/C=C\C/C=C\C/C=C\C/C=C\CCCC(=O)O [EPA, Eicosapentaenoic acid]	reversed
